Consider ten molecules from paper PMC2713237.

By UniProt entry, the sequences of proteins in these tests, tags left out. Residues count along the entry.
UniProt P01558, residues 116-319: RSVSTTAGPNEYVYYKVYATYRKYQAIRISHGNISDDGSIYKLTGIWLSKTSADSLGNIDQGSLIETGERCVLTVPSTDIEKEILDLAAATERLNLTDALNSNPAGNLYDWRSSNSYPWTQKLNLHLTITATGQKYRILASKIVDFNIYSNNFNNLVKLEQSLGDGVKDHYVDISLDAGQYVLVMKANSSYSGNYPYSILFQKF

Results are given in words; binding and its absence hold for the method and conditions named. Binding seen in cells or lysates may run through a third protein. A yes stands for co-enrichment or nearness to the bait. Other partners may have been found.

The labels stand for the following.
B1: Normal mucosa of esophagus-specific gene 1 protein (protein, UniProt Q5RK28 1-83)
chain: MGIFQRLMKNKELIPLAFFISAAATGASSFALYALKKTDVVIDRKRNPEPWETVDPTQPQKLLTINQEWKPVEELQRVRRATR
B2: claudin-2 (protein, UniProt P57739 1-230)
chain: MASLGLQLVGYILGLLGLLGTLVAMLLPSWKTSSYVGASIVTAVGFSKGLWMECATHSTGITQCDIYSTLLGLPADIQAAQAMMVTSSAISSLACIISVVGMRCTVFCQESRAKDRVAVAGGVFFILGGLLGFIPVAWNLHGILRDFYSPLVPDSMKFEIGEALYLGIISSLFSLIAGIILCFSCSSQRNRSNYYDAYQAQPLATRSSPRPGQPPKVKSEFNSYSLTGYV
B3: claudin-6 (protein, UniProt P56747 1-220)
chain: MASAGMQILGVVLTLLGWVNGLVSCALPMWKVTAFIGNSIVVAQVVWEGLWMSCVVQSTGQMQCKVYDSLLALPQDLQAARALCVIALLVALFGLLVYLAGAKCTTCVEEKDSKARLVLTSGIVFVISGVLTLIPVCWTAHAIIRDFYNPLVAEAQKRELGASLYLGWAASGLLLLGGGLLCCTCPSGGSQGPSHYMARYSTSAPAISRGPSEYPTKNYV
B4: Claudin-7 (protein, UniProt Q9Z1L1 1-211)
chain: MANSGLQLLGFSMAMLGWVGLIASTAIPQWQMSSYAGDNIITAQAMYKGLWMECVTQSTGMMSCKMYDSVLALPAATQATRALMIVSLVLGFLAMFVATMGMKCTRCGGDDKVKKARIAMTGGIIFIVAGLAALVACSWIGHQIVTDFYNPLTPMNIKYEFGPAIFIGWAGSALVLLGGALLSCSCPGSESKAAYRAPRSYPKSNSSKEYV
B5: Mitochondrial glutamate carrier 1 (protein, UniProt A0A0G2K5L2 1-323)
chain: MADKQISLPAKLINGGIAGLIGVTCVFPIDLAKTRLQNQQNGQRMYASMSDCLIKTIRSEGYFGMYRGAAVNLTLVTPEKAIKLAANDFFRHQLSKDGQKLTLPKEMLAGCGAGTCQVIVTTPMEMLKIQLQDAGRIAAQRKMLAAQAQLATQGGGQPSVEAPAAPRPTATQLTRDLLRNHGIAGLYKGLGATLLRDVPFSIVYFPLFANLNQLGRPSSEEKSPFYVSFLAGCVAGSAAAVAVNPCDVVKTRLQSLERGVNEDTYSGFLDCARKIWRHEGPSAFLKGAYCRALVIAPLFGIAQVVYFLGIAESLLGLLQEPQA
B6: D-beta-hydroxybutyrate dehydrogenase (protein, UniProt P29147 47-343)
chain: TSQADAASGKAVLVTGCDSGFGFSLAKHLHSKGFLVFAGCLLKDKGDAGVRELDSLKSDRLRTIQLNVCNSEEVEKAVETVRSGLKDPEKGMWGLVNNAGISTFGEVEFTSMETYKEVAEVNLWGTVRTTKSFLPLLRRAKGRVVNISSMLGRMANPARSPYCITKFGVEAFSDCLRYEMHPLGVKVSVVEPGNFIAATSLYSPERIQAIAKKMWDELPEVVRKDYGKKYFDEKIAKMETYCNSGSTDTSSVINAVTHALTAATPYTRYHPMDYYWWLRMQVMTHFPGAISDKIYIH
B7: 3-ketoacyl-CoA thiolase (protein, UniProt P13437 1-397)
chain: MALLRGVFIVAAKRTPFGAYGGLLKDFTATDLTEFAARAALSAGKVPPETIDSVIVGNVMQSSSDAAYLARHVGLRVGVPTETGALTLNRLCGSGFQSIVSGCQEICSKDAEVVLCGGTESMSQSPYSVRNVRFGTKFGLDLKLEDTLWAGLTDQHVKLPMGMTAENLAAKYNISREDCDRYALQSQQRWKAANEAGYFNEEMAPIEVKTKKGKQTMQVDEHARPQTTLEQLQNLPPVFKKEGTVTAGNASGMSDGAGVVIIASEDAVKKHNFTPLARVVGYFVSGCDPAIMGIGPVPAITGALKKAGLSLKDMDLIDVNEAFAPQFLAVQKSLDLDPSKTNVSGGAIALGHPLGGSGSRITAHLVHELRRRGGKYAVGSACIGGGQGISLIIQNTA
B8: RNA polymerase II-associated protein 2 (protein, UniProt Q5I0E6 1-609)
chain: MADSAVPYSLGPSARASSTHRVATGTKQTSALKRRDASKRQAELEAALQRKVESERRAVRLVEQLLEENITEEFLKECGMFITPAHYSDVVDERAIIKLCGYPLCQKKLGVIPKQKYRISTKTNKVYDITERKSFCSNFCYKASKFFEAQIPKTPVWVREEERPPEFQLLKKGQSGCSGEVVQFFRDAVTAADVDAYGAFDAQCEPASSSTWSERASDERASDEEGPGFVSSLLPGNRPKAVGTKPQPHRQSSTVKKKAAQKMTSKHGEQTVSEVTEQLSNCRLDSQEKVATCKLPAKKENTQISSPGPLCDRLNTSTVSENKHSVSQVTLVGISKKSAEHFRSKFAKSNPGSGSASGLVQVRPEVAKANLLRVLKDTLTEWKTDETLKFLYGQDHGSVCLQPSAASGPDEELDEDDISCQAQNTLDETLPFRGSDTAIKPLPSYESLKKETEMLNLRVREFYRGRCVLNEDSTKSQDSKENELQRDPSFPLIDSSSQNQIRRRIVLEKLSKVLPGLLGPLQITMGDIYTELKNLVQTFRLSNRNIIHKPVEWTLIAVVLLSLLTPILGIQKHSPKNVVFTQFIATLLTELHLKCEDLENLAMIFRTSC
B9: Calcium-binding mitochondrial carrier protein Aralar1 (protein, UniProt F1LX07 1-676)
chain: MAVKVHTTKRGDPHELRNIFLQYASTEVDGEHYMTPEDFVQRYLGLYNDPNSNPKIVQLLAGVADQTKDGLISYQEFLAFESVLCAPDSMFIVAFQLFDKSGNGEVTFENVKEIFGQTIIHHHIPFNWDCEFIRLHFGHNRKKHLNYVEFTQFLQELQLEHARQAFALKDKSKSGMISGLDFSDVMVTIRSHMLTPFVEENLVSAAGGSTSHQVSFSYFNAFNSLLNNMELVRKIYSTLAGTRKDIEVTKEEFASAITYGVVTPINVGILYFINNVHISTGRLTLADIERIAPLAEGALPYNLAELQRQQSPGLGRPIWLQIAESAYRFTLGSVAGAVGATAVYPIDLVKTRMQNQRGTGSVVGELMYKNSFDCFKKVLRYEGFFGLYRGLIPQLIGVAPEKAIKLTVNDFVRDKFTRRDGSIPLPAEILAGGCAGGSQVIFTNPLEIVKIRLQVAGEITTGPRVSALNVLQDLGLFGLYKGAKACFLRDIPFSAIYFPVYAHCKLLLADENGHVGGINLLTAGAMAGVPAASLVTPADVIKTRLQVAARAGQTTYSGVIDCFRKILREEGPSAFWKGTAARVFRSSPQFGVTLVTYELLQRWFYIDFGGLKPSGSEPTPKSRIADLPPANPDHIGGYRLATATFAGIENKFGLYLPKFKSPGVAAAQPKVAAAAQ
B10: Staphylococcal nuclease domain-containing protein 1 (protein, UniProt Q66X93 1-909)
chain: MASAQSSGSSGGPAVPTVQRGIVKMVLSGCAIIVRGQPRGGPPPERQINLSNIRAGNLARRAAATQPDGKDTPDEPWAFPAREFLRKKLIGKEVCFTIENKTPQGREYGMIYLGKDTNGENIAESLVAEGLASRREGMRANNPEQNRLSECEEQAKASKKGMWSEGNGSHTIRDLKYTIENPRHFVDSHHQKPVNAIIEHVRDGSVVRALLLPDHYLVTVMLSGIKCPTFRRETDGSETPEPFAAEAKFFTESRLLQRDVQIILESCHNQNILGTILHPNGNITELLLKEGFARCVDWSIAVYTRGAEKLRAAERFAKERRLRIWRDYVPPTANLDQKDKQFVAKVMQVLNADAIVVKLNSGDYKTIHLSSIRPPRLEGDNIQDKNKKLRPLYDIPYMFEAREFLRKKLIGKKVSVTVDYIRPASPATETVPAFSERTCATVTIGGINIAEALVSKGLATVIRYRQDDDQRSSHYDELLAAEARAIKNGKGLHSKKEVPIHRVADISGDTQKAKQFLPFLQRAGRSEAVVEYVFSGSRLKLYLPKETCLITFLLAGIECPRGARNLPGLVQEGEPFSEEATLFTKELVLQREVEVEVESMDKAGNFIGWLHMDGANLSVLLVEHALSKVHFTAERSAYYKPLLSAEEAAKQRKEKVWAHYEEQPVEEVMPVLEEKERSASYKPVFVTEITDDLHFYVQDVETGTQLEKLMENMRSDISSHPPVEGAYAPRRGEFCIAKFVDGEWYRARVEKVESPAKVHVFYIDYGNREILPSTRLGALPPAFSTRVLPAQATEYAFAFIQVPQDEDARTDAVDSVVRDIQNTQCLLNVEHLSASCPHVTLQFADSKGDVGLGLVKEGLVMVEVRKEKQFQKVITEYLNAQESAKSARLNLWRYGDFRADDADEFGYSR

This test has as its target GST-CPE_(116–319) fusion protein (Clostridium perfringens) (UniProt P01558). In words: affinity purification with mass spectrometry; only the target purified.
As for B1, the binding entry is listed as “binds”.
On to B2, for which the binding entry was “binds”.
The result for B3 reads “binds”; that for B4, “binds”; that for B5, “binds”.
As for B6, the entry is “binds”; as for B7, “binds”.
As for B8, the entry is “binds”.
Regarding B9, the binding entry is reported as “binds”.
The result for B10 reads “binds”.
